Experimental data from PubChem BioAssay AID256 (DTP/NCI, 2004).
The list does not hold the whole screen: it is rich in T/C values a quarter to a half above the control, in often repeated tests (any T/C) and in doses without a T/C. Further doses and runs are listed elsewhere. T/C: endpoint of the treated group in % of that of the vehicle group. Some doses have a count of surviving animals in place of a T/C: the source files T/C as zero there, which appears to mark a toxic dose or a test without result, not a measured value. Some survivor counts are full or nearly so, which does not show that the dose was tolerated: survival well below the control is almost never listed, so the zero probably covers shortened survival too. Survivors were counted at the toxicity check, usually on the fifth day, unless a day is given; later deaths do not show. Schedules are NCI's codes, read here as Q, the interval in days (D) or hours (H), X, the number of doses. For survival time, the PubChem record calls one and a half times the control and up active, and a quarter to a half above the control has no call in these data; cut-offs in other NCI protocols can differ. Some T/C values are followed by the survivors on the day toxicity was checked, most often the fifth; where none is given, no animal had died by that day. Some entries were tested several times; the values are given in rising order.

Tested on: CD2F1 mice, L1210 leukemia ip, survival T/C
Test: NCI In Vivo Anticancer Drug Screen. Data for tumor model L1210 Leukemia (intraperitoneal) in CD2F1 (CDF1) mice
Details: higher T/C = longer survival
Summary of the method: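 Transplantable tumor in mice; compound-treated vs vehicle-treated groups. Read-out = treated/control ratio of the measured endpoint.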

[1] = T/C endpoint: mean survival time, dose: 200.0 mg/kg/injection, schedule: Q01DX001 (ip), vehicle: saline with Tween-80
[2] = T/C endpoint: mean survival time, dose: 400.0 mg/kg/injection, schedule: Q01DX001 (ip), vehicle: saline with Tween-80
[3] = T/C endpoint: mean survival time, dose: 200.0 mg/kg/injection, schedule: Q04DX003 (ip), vehicle: saline
[4] = T/C endpoint: mean survival time, dose: 400.0 mg/kg/injection, schedule: Q04DX003 (ip), vehicle: saline
[5] = T/C endpoint: mean survival time, dose: 400.0 mg/kg/injection, schedule: Q01DX009 (ip), vehicle: saline with Tween-80

## CC1(C)N=C(N)N=C(N)N1c1ccccc1Cl
T/C endpoint: mean survival time, dose: 100.0 mg/kg/injection, schedule: Q04DX002 (ip), vehicle: saline
  survivor count: 0 of 3
T/C endpoint: mean survival time, dose: 200.0 mg/kg/injection, schedule: Q04DX002 (ip), vehicle: saline
  survivor count: 0 of 3

## NC(=S)N/N=C\c1nccc2c(C(F)(F)F)cccc12
T/C endpoint: mean survival time, dose: 400.0 mg/kg/injection, schedule: Q04DX002 (ip), vehicle: saline with Tween-80
  survivor count: 3 of 3

## CCCN(CCC)C(=O)[S-].CCCN(CCC)C(=O)[S-].[Ni+2]
T/C endpoint: mean survival time, dose: 100.0 mg/kg/injection, schedule: Q04DX003 (ip), vehicle: saline with Tween-80
  survivor count: 1 of 6
T/C endpoint: mean survival time, dose: 200.0 mg/kg/injection, schedule: Q04DX003 (ip), vehicle: saline with Tween-80
  survivor count: 0 of 6
T/C endpoint: mean survival time, dose: 400.0 mg/kg/injection, schedule: Q04DX003 (ip), vehicle: saline with Tween-80
  survivor count: 0 of 6

## C#CCNc1ncnc2c1ncn2C1OC(CO)C(O)C1O (centres undefined)
T/C endpoint: mean survival time, dose: 400.0 mg/kg/injection, schedule: Q01DX005 (ip), vehicle: other
  survivor count: 2 of 6

## CC(CCOP(=O)(N(CCCl)CCCl)N1CC1)OCc1ccccc1 (centres undefined)
T/C endpoint: mean survival time, dose: 25.0 mg/kg/injection, schedule: Q01DX001 (ip), vehicle: other
  T/C: 131 % of control
T/C endpoint: mean survival time, dose: 50.0 mg/kg/injection, schedule: Q01DX001 (ip), vehicle: other
  T/C: 125 % of control
T/C endpoint: mean survival time, dose: 75.0 mg/kg/injection, schedule: Q01DX001 (ip), vehicle: other
  T/C: 135 % of control
T/C endpoint: mean survival time, dose: 100.0 mg/kg/injection, schedule: Q01DX001 (ip), vehicle: other
  survivor count: 6 of 6
T/C endpoint: mean survival time, dose: 200.0 mg/kg/injection, schedule: Q01DX001 (ip), vehicle: other
  survivor count: 6 of 6
T/C endpoint: mean survival time, dose: 400.0 mg/kg/injection, schedule: Q01DX001 (ip), vehicle: other
  survivor count: 5 of 6

## O=C(O)C(C(=O)O)C1Cc2cccc3cccc1c23 (centres undefined)
[1]
  survivor count: 2 of 6
[2]
  survivor count: 0 of 6

## Cc1cc(NCCCCCCCCNc2cc(C)nc3cc(N(C)C)ccc23)c2ccc(N(C)C)cc2n1
T/C endpoint: median survival time, dose: 6.25 mg/kg/injection, schedule: Q01DX009 (ip), vehicle: distilled water + Tween-80 + alcohol
  T/C: 125 % of control
T/C endpoint: median survival time, dose: 12.5 mg/kg/injection, schedule: Q01DX009 (ip), vehicle: distilled water + Tween-80 + alcohol
  T/C: 135 % of control
T/C endpoint: median survival time, dose: 25.0 mg/kg/injection, schedule: Q01DX009 (ip), vehicle: distilled water + Tween-80 + alcohol
  T/C: 137 % of control
T/C endpoint: median survival time, dose: 25.0 mg/kg/injection, schedule: Q01DX009 (ip), vehicle: distilled water + Tween-80
  T/C: 134 % of control [5 of 6 alive]
T/C endpoint: median survival time, dose: 50.0 mg/kg/injection, schedule: Q01DX009 (ip), vehicle: distilled water + Tween-80 + alcohol
  survivor count: 0 of 6
T/C endpoint: median survival time, dose: 50.0 mg/kg/injection, schedule: Q01DX009 (ip), vehicle: distilled water + Tween-80
  survivor count: 0 of 6

## CS(C)=O.CS(C)=O.[Cl][Rh]([Cl])([Cl])[Cl]
[3]
  survivor count: 0 of 6
[4]
  survivor count: 0 of 6

## CCN(CC)CCCCNc1ccc(NCCCCN(CC)CC)c2c1C(=O)c1ccccc1C2=O
T/C endpoint: mean survival time, dose: 200.0 mg/kg/injection, schedule: Q01DX009 (ip), vehicle: saline
  survivor count: 0 of 6

## [NH-]C(CO)C(=O)O.[NH-]C(CO)C(=O)O.[Pt+2] (centres undefined)
T/C endpoint: mean survival time, dose: 3.13 mg/kg/injection, schedule: Q04DX003 (ip), vehicle: saline
  T/C: 127 % of control

## O=C1CSC(=S)N1
[5]
  survivor count: 4 of 6

## CCCC[As](=O)(O)C(C)C
T/C endpoint: mean survival time, dose: 110.0 mg/kg/injection, schedule: Q01DX001 (ip), vehicle: saline
  survivor count: 1 of 6

## CCN(CC)CCCNc1ncnc(Cl)c1C(=C(C)C)c1ccccc1
T/C endpoint: mean survival time, dose: 400.0 mg/kg/injection, schedule: Q01DX001 (ip), vehicle: saline
  survivor count: 0 of 6

## CCC(C(=O)O)c1ccccc1 (centres undefined)
T/C endpoint: mean survival time, dose: 400.0 mg/kg/injection, schedule: Q04DX003 (ip), vehicle: saline sonified
  survivor count: 3 of 6

## Nc1ncnc2c1c1c(=O)[nH]c(=O)[nH]c1n2C1OC(CO)C(O)C1O (centres undefined)
T/C endpoint: median survival time, dose: 200.0 mg/kg/injection, schedule: Q01DX009 (ip), vehicle: distilled water + Tween-80
  T/C: 127 [5 of 6 alive] and 130 % of control
T/C endpoint: median survival time, dose: 400.0 mg/kg/injection, schedule: Q01DX009 (ip), vehicle: distilled water + Tween-80
  survivor count: 1 of 6

## COc1cccc2c1C(=O)c1c(O)c3c(c(O)c1C2=O)C[C@@](O)(C(=O)CO)C[C@@H]3OC1CC(N)CC(C)O1 (some centres undefined)
T/C endpoint: median survival time, dose: 0.37 mg/kg/injection, schedule: Q01DX009 (ip), vehicle: water
  T/C: 142 % of control
T/C endpoint: median survival time, dose: 6.0 mg/kg/injection, schedule: Q01DX009 (ip), vehicle: water
  survivor count: 5 of 6

## O=C(O)CCC(=O)c1ccc2c(c1)CCCC2
T/C endpoint: median survival time, dose: 25.0 mg/kg/injection, schedule: Q04DX002 (ip), vehicle: saline with Tween-80
  survivor count: 3 of 3
T/C endpoint: median survival time, dose: 50.0 mg/kg/injection, schedule: Q04DX002 (ip), vehicle: saline with Tween-80
  survivor count: 3 of 3
T/C endpoint: median survival time, dose: 100.0 mg/kg/injection, schedule: Q04DX002 (ip), vehicle: saline with Tween-80
  survivor count: 3 of 3
T/C endpoint: median survival time, dose: 200.0 mg/kg/injection, schedule: Q04DX002 (ip), vehicle: saline with Tween-80
  survivor count: 3 of 3

## CCNc1ncc2ccccc2c1-c1ccc(NCCN(CCCl)CCCl)cc1
T/C endpoint: mean survival time, dose: 200.0 mg/kg/injection, schedule: Q04DX003 (ip), vehicle: water
  survivor count: 2 of 6
T/C endpoint: mean survival time, dose: 400.0 mg/kg/injection, schedule: Q04DX003 (ip), vehicle: water
  survivor count: 0 of 6

## C=CC(CN1CC1)OC(C)=O (centres undefined)
T/C endpoint: mean survival time, dose: 2.5 mg/kg/injection, schedule: Q01DX007 (ip), vehicle: saline
  T/C: 134 % of control
T/C endpoint: mean survival time, dose: 2.5 mg/kg/injection, schedule: Q01DX009 (ip), vehicle: saline
  T/C: 145 % of control
T/C endpoint: mean survival time, dose: 3.75 mg/kg/injection, schedule: Q01DX009 (ip), vehicle: saline
  T/C: 141 % of control
T/C endpoint: mean survival time, dose: 10.0 mg/kg/injection, schedule: Q01DX007 (ip), vehicle: saline
  T/C: 128 % of control
T/C endpoint: mean survival time, dose: 10.0 mg/kg/injection, schedule: Q01DX009 (ip), vehicle: saline
  T/C: 126 % of control
T/C endpoint: mean survival time, dose: 10.0 mg/kg/injection, schedule: Q03DX003 (ip), vehicle: saline
  T/C: 145 % of control
T/C endpoint: mean survival time, dose: 30.0 mg/kg/injection, schedule: Q01DX009 (ip), vehicle: saline
  survivor count: 2 of 6

## N#C/C(=C1C=C/C(=N\O)C(Cl)=C\1)c1ccccc1
[5]
  survivor count: 4 of 6

## O=C(O)CC(CC(=O)O)C(=O)O.[NH-]C1CCCCC1[NH-].[Pt+2]
T/C endpoint: median survival time, dose: 200.0 mg/kg/injection, schedule: Q04DX003 (ip), vehicle: saline
  T/C: 137 % of control

## Cc1ccncc1C1CCCN1C (centres undefined)
T/C endpoint: mean survival time, dose: 100.0 mg/kg/injection, schedule: Q04DX003 (ip), vehicle: saline
  survivor count: 3 of 3
[3]
  survivor count: 1 of 3
[4]
  survivor count: 0 of 3

## CCC1CC2CN(CCc3c([nH]c4ccccc34)C(C(=O)OC)(c3cc4c(cc3OC)N(C)C3C(O)(C(=O)OC)C(OC(C)=O)C5(CC)C=CCN6CCC43C65)C2)C1 (centres undefined)
T/C endpoint: median survival time, dose: 2.0 mg/kg/injection, schedule: Q01DX009 (ip), vehicle: saline
  T/C: 132 % of control
T/C endpoint: median survival time, dose: 4.0 mg/kg/injection, schedule: Q01DX009 (ip), vehicle: water
  survivor count: 10 of 10
T/C endpoint: median survival time, dose: 8.0 mg/kg/injection, schedule: Q01DX009 (ip), vehicle: water
  survivor count: 0 of 10

## O=S(=O)(O)O.[NH-]C1CCCCC1C1CCCCC1[NH-].[Pt+2] (centres undefined)
T/C endpoint: mean survival time, dose: 6.25 mg/kg/injection, schedule: Q04DX003 (ip), vehicle: distilled water + Tween-80
  T/C: 133 % of control
T/C endpoint: mean survival time, dose: 25.0 mg/kg/injection, schedule: Q04DX003 (ip), vehicle: distilled water + Tween-80
  T/C: 147 % of control
T/C endpoint: mean survival time, dose: 50.0 mg/kg/injection, schedule: Q04DX003 (ip), vehicle: distilled water + Tween-80
  T/C: 144 % of control [5 of 6 alive]

## CC1=C[S+](c2ccccc2)c2cccc3cc4ccccc4c1c23 (centres undefined)
T/C endpoint: mean survival time, dose: 20.0 mg/kg/injection, schedule: Q01DX001 (ip), vehicle: saline with Tween-80
  survivor count: 1 of 6
T/C endpoint: mean survival time, dose: 100.0 mg/kg/injection, schedule: Q01DX001 (ip), vehicle: saline with Tween-80
  survivor count: 0 of 6
[1]
  survivor count: 0 of 6
[2]
  survivor count: 0 of 6

## CNCCSSCCN
T/C endpoint: mean survival time, dose: 200.0 mg/kg/injection, schedule: Q01DX009 (ip), vehicle: saline with Tween-80
  survivor count: 6 of 6
[5]
  survivor count: 0 of 6

## CC(=O)Nc1ccc(SCCCc2c(N)nc(N)nc2N)cc1
[2]
  survivor count: 1 of 3
